These results are taken from patent US20170312353A1.

Sequences of proteins named here, by UniProt entry; tags and fusion partners are left off. Residues count along the entry.
UniProt P00747, residues 20-810: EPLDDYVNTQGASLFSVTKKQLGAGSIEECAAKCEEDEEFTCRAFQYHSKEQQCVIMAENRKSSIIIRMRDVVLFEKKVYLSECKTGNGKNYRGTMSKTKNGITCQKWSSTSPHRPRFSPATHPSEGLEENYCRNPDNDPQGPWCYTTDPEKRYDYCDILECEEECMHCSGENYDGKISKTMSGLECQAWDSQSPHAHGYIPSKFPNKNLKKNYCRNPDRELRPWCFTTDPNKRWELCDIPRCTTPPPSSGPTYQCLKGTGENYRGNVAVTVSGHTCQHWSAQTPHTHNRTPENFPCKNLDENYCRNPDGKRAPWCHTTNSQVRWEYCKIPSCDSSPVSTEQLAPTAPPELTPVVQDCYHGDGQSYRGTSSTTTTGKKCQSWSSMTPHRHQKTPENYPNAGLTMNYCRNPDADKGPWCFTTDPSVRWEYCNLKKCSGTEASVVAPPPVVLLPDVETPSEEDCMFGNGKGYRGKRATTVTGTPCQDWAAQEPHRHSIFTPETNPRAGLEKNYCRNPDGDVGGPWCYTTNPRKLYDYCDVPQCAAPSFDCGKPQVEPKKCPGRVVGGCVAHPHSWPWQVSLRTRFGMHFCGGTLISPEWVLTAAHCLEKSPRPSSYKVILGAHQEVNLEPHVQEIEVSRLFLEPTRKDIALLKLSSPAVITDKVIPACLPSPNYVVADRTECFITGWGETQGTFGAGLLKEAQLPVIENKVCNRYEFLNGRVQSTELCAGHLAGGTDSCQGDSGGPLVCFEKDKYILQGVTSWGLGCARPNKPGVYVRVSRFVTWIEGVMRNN

These are yes or no findings as the source states them, for the method shown. Some results given as binding are weak or reduced against the parent protein; the word gives no strength.

The target in test [1] is plasminogen (UniProt P00747). Put plainly: ELISA, peptide immobilized, plasminogen in solution, HRP anti-plasminogen antibody, TMB. For orientation: In an ELISA, binding on a coated surface is turned into a signal by an enzyme label.
In test [2] the target is plasminogen (UniProt P00747). The test can be described thus: Dot-Blot, peptide on nitrocellulose, HRP anti-plasminogen antibody, DAB.

For VAASEFYNSENKTYDLDFKTPNNDK [peptide 7], the binding result in test [1] and in test [2] was “binds” throughout.
As for VAASEFYNSENKTYDLDFKTPNNDKSLVKTGAQLVK [peptide 8], the binding entry in test [1] and in test [2] was “binds” throughout.
